Results taken from PubChem BioAssay AID2551 (National Center for Advancing Translational Sciences (NCATS), 2010).
About 17,000 (5.5%) of roughly 310,000 compounds were called active. Inconclusive means that the source gave no clear call. Such entries were picked first, then a sample of the others. The call rests on the fitted dose curve; in most records, active means well fitted inhibition curve with a large enough effect; inconclusive means small, poorly fitted or top-dose-only effect, or effect the other way; inactive means no such curve, though single readings can be large or run the other way. A potency beside an inconclusive call is a rough fit, not a confirmed value.

Chains of the proteins cited; added tags and fusions are not shown. Lines headed by an entry give the natural chain unless they say otherwise; changes in a name come on top.
UniProt P51450: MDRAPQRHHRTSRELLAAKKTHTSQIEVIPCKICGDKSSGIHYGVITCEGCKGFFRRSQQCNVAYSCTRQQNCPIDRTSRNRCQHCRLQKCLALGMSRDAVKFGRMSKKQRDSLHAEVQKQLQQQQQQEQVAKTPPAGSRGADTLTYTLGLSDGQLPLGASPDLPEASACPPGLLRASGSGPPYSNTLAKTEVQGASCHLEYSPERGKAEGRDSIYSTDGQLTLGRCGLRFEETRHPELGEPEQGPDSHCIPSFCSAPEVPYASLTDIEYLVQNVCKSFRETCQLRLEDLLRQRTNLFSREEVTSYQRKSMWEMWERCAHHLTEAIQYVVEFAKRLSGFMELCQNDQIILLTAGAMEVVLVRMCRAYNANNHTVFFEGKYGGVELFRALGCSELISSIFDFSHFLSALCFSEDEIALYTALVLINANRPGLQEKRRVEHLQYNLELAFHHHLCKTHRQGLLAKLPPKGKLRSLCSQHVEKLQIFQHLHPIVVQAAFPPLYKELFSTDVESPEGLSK

Target: Nuclear receptor ROR-gamma (Mus musculus) (UniProt P51450)
Experiment: qHTS for inhibitors of ROR gamma transcriptional activity; further: nearly all actives have a fitted effect of over 60% in size
Conditions: Drosophila S2 Gal4-RORgamma UAS-luciferase reporter, 20 h; series mostly up to 53.6 µM
Summary of the method: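 Using a luciferase readout, inhibitors were identified by reduced reporter activity in Drosophila cells coexpressing a copper-inducible Gal4–ROR gamma fusion and UAS-driven Photinus luciferase, incubated 20 hr after 700 uM copper sulfate.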
Potency means the concentration at half of the fitted maximal effect.

| SMILES | Potency |
| --- | --- |
| Cc1ccc(C2NC(=O)c3c(sc(C)c3C)N2)c(O)c1 (centres undefined) | inconclusive: 11.2 µM [activator, partial curve] |
| CCOc1ccc(NC2=CC(=O)CC(c3ccco3)C2)cc1 (centres undefined) | inconclusive: 11.2 µM [activator, partial curve] |
| O=C(Nc1nnc(SCC(=O)N2CCOCC2)s1)c1ccccc1Cl | active: 10 µM |
| O=C1CSc2ccc(S(=O)(=O)N3CCN(c4ccccc4F)CC3)cc2N1 | inconclusive: 35.5 µM [activator, single point] |
| Cc1c(C(=O)Nc2ccc(Cl)cc2)c2ccccn2c1C(=O)c1ccccc1 | inactive |
| COc1ccc(Nc2nc(-c3cccnc3)nc3ccccc23)cn1 | inconclusive: 5.01 µM [activator, full curve, poor fit] |
| COc1cc(/C=N/Nc2nc3ccccc3[nH]2)ccc1O | inconclusive: 22.4 µM [inhibitor, single point] |
| COc1ccc(NC(=O)c2cc(-c3cc(C)cc(C)c3O)n[nH]2)cc1Cl | inconclusive: 1 µM [inhibitor, partial curve, poor fit] |
| Cc1ccc(-c2csc(NC(=O)C3CCN(S(=O)(=O)c4cccs4)CC3)n2)cc1 | inconclusive: 35.5 µM [activator, single point] |
| CCCCn1c(/N=C/c2ccc3c(c2)OCO3)nc2ccccc21 | inconclusive: 5.62 µM [inhibitor, single point] |
| Clc1ccc2c(N/N=C/c3ccc(Br)cc3)ccnc2c1 | active: 6.31 µM |
| COc1ccc(OC)c(/C=N/n2c(COc3ccccc3)n[nH]c2=S)c1 | inconclusive: 6.31 µM [inhibitor, partial curve, poor fit] |
| CCCC(=O)Nc1ccc(C(=O)NN2C(=O)c3ccccc3C2=O)cc1 | inconclusive: 0.631 µM [activator, full curve] |
| Cc1cnc(=O)[nH]c1SCc1ccccc1F | inactive |
| O=C(N/N=C/c1c(O)ccc2ccccc12)c1ccc(CO)nc1 | active: 3.98 µM |
| O=C(Oc1c(CN2CCOCC2)cc(Cl)c2cccnc12)c1ccccc1 | active: 1.78 µM |
| CC(=O)N1CCC(=NNc2ncc(C(F)(F)F)cc2Cl)CC1 | active: 3.16 µM |
| Cc1cc(C)c2nc(N3CCC(C(=O)NCCCN4CC(C)CC(C)C4)CC3)sc2c1 (centres undefined) | inactive |
| CCC[n+]1cn(/C(C(=S)Nc2cccc(Cl)c2C)=C(/[O-])c2ccc(OC)c(OC)c2)c2ccccc21 | active: 14.1 µM |
| NC(N)=N/N=C/c1ccc(OS(=O)(=O)c2ccccc2)cc1 | inconclusive: 12.6 µM [activator, partial curve, poor fit] |
| COc1ccc(OC)c(NC(=O)CCCN2C(=O)C3C4C=CC(C4)C3C2=O)c1 (centres undefined) | inactive |
| Cc1ccc2cc3c(nc2c1)OCC3 | inactive |
| S=C(NCc1ccc(Cl)cc1)NCc1ccco1 | active: 7.08 µM |
| Cc1ccc(Oc2nc3ccccn3c(=O)c2/C=C(\C#N)C(=O)NC2CCS(=O)(=O)C2)c(C)c1 (centres undefined) | inconclusive: 15.8 µM [inhibitor, single point] |
| CN1C(=O)CC[C@@H]1c1cccnc1 | inactive |

Retrieved one by one from the list above:

| SMILES | Potency |
| --- | --- |
| Clc1ccc2c(N/N=C/c3ccc(Br)cc3)ccnc2c1 | active: 6.31 µM |
| COc1cc(/C=N/Nc2nc3ccccc3[nH]2)ccc1O | inconclusive: 22.4 µM [inhibitor, single point] |

Next part:

| SMILES | Potency |
| --- | --- |
| C=CCNC(=S)NNC(=O)c1ccc(OCC)cc1 | inactive |
| Cc1ccc(S(=O)(=O)n2nc(-c3ccco3)nc2SCc2ccccc2)cc1 | inactive |
| Cc1cc2c(c(=O)o1)C(c1cccs1)C(C#N)=C(N)O2 (centres undefined) | active: 14.1 µM |
| CC1CCN(S(=O)(=O)c2ccc3ncn(CC(=O)N(C)Cc4ccccc4)c(=O)c3c2)CC1 | inconclusive: 7.08 µM [activator, partial curve] |
| N#CC1(O)CCCCC1 | inactive |
| Cc1cccc(N2CCN(C(=O)CC(NC(=O)c3ccccc3Cl)c3ccccc3)CC2)c1C (centres undefined) | inconclusive: 15.8 µM [activator, partial curve, poor fit] |
| O=C(NCCc1ccccn1)c1cc(-c2ccc(Cl)c(Cl)c2Cl)nc2ccccc12 | inconclusive: 35.5 µM [inhibitor, single point] |
| CCOC(=O)CNC(=O)C12CC3CC(CC(C3)C1)C2 | inactive |
| COc1cccc(-c2nc(CS(=O)(=O)CC(=O)NCc3ccccc3OC)c(C)o2)c1 | inconclusive: 15.8 µM [activator, single point] |
| O=C(NNC1=C(C(=O)C(F)(F)F)CCC1)c1cccnc1 | active: 7.08 µM |
| CCN1C=C(Cc2ccc(OC)cc2)C2=C(C1)C(c1ccc(OC)cc1)C(C#N)=C(N)O2 (centres undefined) | inactive |
| C=C(C)C1CCC2(C(=O)O)CCC3(C)C(CCC4C5(C)C(C=O)C(O)C(C)(C)C5CCC43C)C12 (centres undefined) | inconclusive: 14.1 µM [inhibitor, single point] |
| Oc1ccc(-c2nnc(-c3ccc(O)cc3)nn2)cc1 | active: 11.2 µM |
| Cc1ccc(C(=O)N2CCN(Cc3ccc4c(c3)OCO4)CC2)cc1C | inconclusive: 14.1 µM [activator, partial curve] |
| CN(C)c1ncccc1-c1nc2ccccc2s1 | inactive |
| COCCCNC(=O)Cn1cc2c(n1)CCC(C)C2 (centres undefined) | inactive |
| COC(=O)c1ccccc1NC(=O)CSc1nnc(-c2ccc(C)cc2)o1 | inconclusive: 0.141 µM [activator, partial curve, poor fit] |
| CC(=O)Nc1cccc(OCC(O)Cn2c(C)nc3ccccc32)c1 (centres undefined) | inconclusive: 22.4 µM [activator, single point] |
| Cn1c(/C=C/c2ccc(Cl)cc2)c([N+](=O)[O-])c(=O)n(C)c1=O | inconclusive: 15.8 µM [inhibitor, single point] |
| COc1ccc2c(c1)c(/C=N/Nc1ccc(C(=O)O)cc1)c(C)n2C | inconclusive: 10 µM [inhibitor, partial curve, poor fit] |
| CC12CC(c3ccccc3O1)N(C(=O)c1ccco1)C(=S)N2c1ccccc1 (centres undefined) | inconclusive: 25.1 µM [inhibitor, single point] |
| O=C(/C=C/c1ccco1)NCC1OCCc2ccccc21 (centres undefined) | inactive |
| C1COC(NC(C2CC2)C2CC2)=N1 | inconclusive: 31.6 µM [activator, single point] |
| COC(=O)c1ccccc1NC(=S)NC(=O)C1CC1 | active: 12.6 µM |
